Test results taken from article PMC11091243 (Frontiers in Immunology, 2024).

test: peptide made by a vendor (Fmoc solid-phase peptide synthesis); conditions: whole synthesis

Final purity (method not given), >98%:
SHESWLPAYVLGSGGGSK-FITC-NH2, SHESWLPAYVLGSGGGSK-NH2, SHTSWILYGETGWGGGSK-FITC-NH2, SHTSWILYGETGWGGGSK-NH2, SMQYADHPVNTGGGGSK(PEG8)-NH2, SMQYADHPVNTGGGGSK-FITC-NH2, SMQYADHPVNTGGGGSK-NH2, SVSVSHFQKVWVVGGGSK(PEG8)-NH2, SVSVSHFQKVWVVGGGSK-FITC-NH2, SVSVSHFQKVWVVGGGSK-NH2

The same purity stands for every peptide and may come from a single statement.
